From paper PMC9297854
No constants are given. Whether binding was seen depends on the method and setting. Some entries that bind do so weakly or less than the wild type.

The chains behind the UniProt entries cited, without tags or fusion partners.
UniProt Q01629: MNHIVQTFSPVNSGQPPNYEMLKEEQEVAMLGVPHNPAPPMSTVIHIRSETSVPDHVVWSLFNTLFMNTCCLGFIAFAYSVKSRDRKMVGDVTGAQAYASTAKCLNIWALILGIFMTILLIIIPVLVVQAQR
UniProt O95817: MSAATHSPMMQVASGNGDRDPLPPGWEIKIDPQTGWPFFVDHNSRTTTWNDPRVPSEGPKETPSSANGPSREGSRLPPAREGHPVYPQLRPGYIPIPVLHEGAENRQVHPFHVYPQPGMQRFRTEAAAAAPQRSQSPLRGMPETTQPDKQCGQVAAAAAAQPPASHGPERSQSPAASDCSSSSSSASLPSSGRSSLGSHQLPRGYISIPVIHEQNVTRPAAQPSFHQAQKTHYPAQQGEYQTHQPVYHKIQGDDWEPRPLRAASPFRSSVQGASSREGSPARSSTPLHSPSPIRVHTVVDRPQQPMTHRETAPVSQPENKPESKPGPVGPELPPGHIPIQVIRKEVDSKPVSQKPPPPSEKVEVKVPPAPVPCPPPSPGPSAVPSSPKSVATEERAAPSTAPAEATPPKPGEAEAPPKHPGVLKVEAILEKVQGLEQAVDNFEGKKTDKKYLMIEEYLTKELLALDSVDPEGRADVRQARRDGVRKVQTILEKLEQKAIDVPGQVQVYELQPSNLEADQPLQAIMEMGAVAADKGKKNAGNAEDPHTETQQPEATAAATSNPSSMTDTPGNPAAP

Biological target: Interferon-induced transmembrane protein (IFITM)-2 (human (endogenous in human dermal fibroblasts)) (UniProt Q01629)
Experiment: flow cytometry on cells; competition: fibroblasts pretreated with rBAG3 1x (10 ug/ml) or 10x (100 ug/ml) for 30 min on ice, then 20 ug/ml FITC-conjugated anti-IFITM-2 monoclonal antibody for 30 min on ice; binding buffer PBS, 10% FBS, 0.1% NaN3; BSA as unrelated control; only the binder purified

binding: binds
Substance: Human recombinant BAG3 protein (from UniProt O95817 1-575)
